# Measurements reported in publication PMC5109907, “Enhancing succinic acid biosynthesis in Escherichia coli by engineering its global transcription factor, catabolite repressor/activator (Cra)” (Scientific Reports, 2016).
# Construct, isoform or probe ends are uncertain for at least one entry. Weaker means in comparison with the reference protein, sequence or condition of that experiment. Tags and fusion partners may be left off the protein sequences shown.
# Molecular target: T1, Cra wild type (Escherichia coli) (UniProt P0ACP1)
# T1 sequence (looked up, limits assumed): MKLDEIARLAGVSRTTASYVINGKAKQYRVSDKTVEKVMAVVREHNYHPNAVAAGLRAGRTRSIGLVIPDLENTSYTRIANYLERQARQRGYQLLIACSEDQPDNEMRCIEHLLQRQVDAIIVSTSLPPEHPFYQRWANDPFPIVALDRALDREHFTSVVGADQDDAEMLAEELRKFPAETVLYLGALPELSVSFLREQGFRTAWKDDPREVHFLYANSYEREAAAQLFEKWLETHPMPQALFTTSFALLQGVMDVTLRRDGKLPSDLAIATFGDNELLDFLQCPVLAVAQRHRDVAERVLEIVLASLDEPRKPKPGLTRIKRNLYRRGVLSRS
# Assay: EMSA
# Settings: 1 mM FBP, weaker than without FBP; EMSA: 50 nM oligonucleotide mixture annealed in TE buffer, with or without 1 mM FBP, 15 min at 30 C, nondenaturing 10% polyacrylamide gel, ethidium bromide; recombinant protein; protein details: His6; label: none (ethidium bromide stain)
sequence,measurement,value
TCGTTAAGCGATTCAGCA (double strand) [aceBAK 18-bp Cra site],binding result,binds more weakly
